These are yes or no findings as the source states them, for the method shown. For some of these results: Binding can be weak; no strength is given.
Key:
PKC-ζ (purified isoform) [1] = test: competitive ELISA, purified PKC-ζ
PKC-ζ (purified isoform) [2] = test: competitive ELISA, purified isoform
PKC-δ (purified isoform) [3] = test: competitive ELISA, purified isoform
PKC-ε (purified isoform) [4] = test: competitive ELISA, purified isoform
PKC-ζ (purified isoform) [5] = test: competitive ELISA, purified isoforms
PKC-δ (purified isoform) [6] = test: competitive ELISA, purified isoforms
PKC-ε (purified isoform) [7] = test: competitive ELISA, purified isoforms

Row | Binder | binding (PKC-ζ (purified isoform) [1]) | binding (PKC-δ (purified isoform) [3]) | also measured
1 | ISIGILNQADK (N-terminal acetyl (Ac-); C-terminal amide (-NH2)) [PRE 10] | no binding (tested: 50-200 µM) |  | 
2 | KDAQNLI (N-terminal acetyl (Ac-); C-terminal amide (-NH2)) [PRE 12] | no binding (tested: 50-200 µM) |  | 
3 | RDAQNLI (N-terminal acetyl (Ac-); C-terminal amide (-NH2)) [PRE 13] | no binding (tested: 50-200 µM) |  | 
4 | KDAQNLIGISI (N-terminal acetyl (Ac-); C-terminal amide (-NH2)) [PRE 4] | no binding (tested: 50-200 µM) | binds | 
5 | ILEDKGGDAQNLIGISI [PRE 8] | no binding (tested: 50-200 µM) |  | 
6 | ISIGILQNADK (N-terminal acetyl (Ac-); C-terminal amide (-NH2)) [PRE 7] | no binding (tested: 50-200 µM) |  | 
7 | RRKKGGKDFVVKR [PRE 1] | no binding (tested: 50-200 µM) | binds | 

Continued, in another order:

Row | binding (PKC-ζ (purified isoform) [1]) | binding (PKC-δ (purified isoform) [3]) | Binder | also measured
8 |  | binds | AKGIQEVKGGDAQNLIGISI (N-terminal acetyl (Ac-); C-terminal amide (-NH2)) [PRE 3] | binding (PKC-ζ (purified isoform) [2]): binds; binding (PKC-ε (purified isoform) [4]): binds; binding (PKC-ζ (purified isoform) [5]): binds; binding (PKC-δ (purified isoform) [6]): binds; binding (PKC-ε (purified isoform) [7]): binds
9 | no binding (tested: 50-200 µM) |  | AKGIQEVKGGKDAQNLIGISI (N-terminal acetyl (Ac-); C-terminal amide (-NH2)) [PRE 5] | 
10 | no binding (tested: 50-200 µM) |  | KDANQLIGISI (N-terminal acetyl (Ac-); C-terminal amide (-NH2)) [PRE 6] | 
11 | no binding (tested: 50-200 µM) | binds | RDAQNLIGISI (N-terminal acetyl (Ac-); C-terminal amide (-NH2)) [PRE 11] | 

Source: patent US20110039770A1, “INHIBITORS OF PROTEIN KINASE C ISOFORMS AND USES THEREOF” (PHARMAGAP INC., priority 2005, published 2011)
